Data from publication doi:10.1101/2024.10.30.620894 (bioRxiv, 2024).
Results are given in words; binding and its absence hold for the method and conditions named. Some results given as binding are weak or reduced against the parent protein; the word gives no strength. Blank lines part the entries; values can stand above or below the binder they belong to.

Assays:
[1] = target: T1, denatured rhodanese (D-Rho) (UniProt P00586); experiment: SEC
T1 sequence: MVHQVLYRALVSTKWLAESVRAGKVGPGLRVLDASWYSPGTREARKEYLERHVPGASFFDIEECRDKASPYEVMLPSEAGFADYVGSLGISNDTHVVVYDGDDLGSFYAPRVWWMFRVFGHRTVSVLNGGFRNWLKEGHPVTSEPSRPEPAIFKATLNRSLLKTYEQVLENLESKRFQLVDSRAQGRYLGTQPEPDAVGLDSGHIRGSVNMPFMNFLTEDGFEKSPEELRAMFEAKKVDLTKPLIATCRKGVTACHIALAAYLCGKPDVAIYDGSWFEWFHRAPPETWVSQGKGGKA

[2] = target: wild-type clusterin (WT-Clu) (human) (UniProt P10909); experiment: SEC
[3] = target: wild-type clusterin (WT-Clu) (human) (UniProt P10909); experiment: flotation in an Optiprep density gradient

- binding [1]: binds
- binding [2]: no binding (condition: at pH 5 (10 μM))
B1: wild-type clusterin (WT-Clu) (natural protein, human)
chain 1: DQTVSDNELQEMSNQGSKYVNKEIQNAVNGVKQIKTLIEKTNEERKTLLSNLEEAKKKKEDALNETRESETKLKELPGVCNETMMALWEECKPCLKQTCMKFYARVCRSGSGLVGRQLEEFLNQSSPFYFWMNGDRIDSLLENDRQQTHMLDVMQDHFSRASSIIDELFQDRFFTREPQDTYHYLPFSLPHRRPHFFFPKSRIVR
chain 2: SLMPFSPYEPLNFHAMFQPFLEMIHEAQQAMDIHFHSPAFQHPPTEFIREGDDDRTVCREIRHNSTGCLRMKDQCDKCREILSVDCSTNNPSQAKLRRELDESLQVAERLTRKYNELLKSYQWKMLNTSSLLEQLNEQFNWVSRLANLTQGEDQYYLRVTTVASHTSDSDVPSGVTEVVVKLFDSDPITVTVPVEVSRKNPKFMETVAEKALQEYRKKHREE
modifications: N-glycans (six in the whole protein) | N-glycans (six in the whole protein)

- binding [3]: binds
B2: denatured rhodanese (D-Rho) (enzyme, UniProt P00586 1-297)
chain: T1 sequence
